Some of the results follow. Many values rest on one well or one pass, so single values are uncertain.
Each molecule was assayed on Saccharomyces cerevisiae BY4743 (assay: growth (OD600) relative to untreated control; higher = less growth inhibition). Settings: compound concentration: 133 uM; 20 h.
Description: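 NMCCC compounds (133 uM, no IPBC) tested alone against Saccharomyces cerevisiae BY4743 in YPD, 96-well plates, starting OD600 ~0.1. Growth was read as OD600 at 20 h and expressed as % of the untreated control. Single pass.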
`COC(=O)CC(NC(=O)c1cc(C(C)=O)c[nH]1)c1ccccc1Cl` (stereo not given) gave a growth of 85.5%.
`Nc1nccnc1C(=O)OCc1cc2c(cc1Br)OCCO2` gave a growth of 94%.
`O=C(CC1=CC=CS1)N(C\2C[S](=O)(=O)\C=C2)C3=CC=CC=C3` (stereo not given) gave a growth of 108%.
Molecule `Cc1ccc(-c2csc(NC(=O)C(C)C)c2C(=O)O)c(C)c1` has a growth of 101%.
With `CN(Cc1cnn(-c2ccccc2)c1)C(=O)c1cc(S(=O)(=O)N(C)C)ccc1Cl` the growth was 100%.
Molecule `Cc1nc(Cl)cc(NCC2COc3ccccc3O2)n1` (stereo not given) has a growth of 97.7%.
Molecule `CC1CCN(c2ccc(NC(=O)CSc3nc(C(C)C)n[nH]3)cc2)CC1` has a growth of 108%.
In the case of `COc1ccc(NC(=O)CSc2nc3nc(C)ccc3o2)c(OC)c1`, the growth is reported as 104%.
`CN1\C=C(/C(=O)N(C)C1=O)[S](=O)(=O)NC2(C)CC[S](=O)(=O)C2` (stereo not given) gave a growth of 117%.
`COc1cc(NC(=O)c2cc(S(=O)(=O)N3CCCC3)c(Cl)cc2Cl)ccc1OC(F)F` was tested, and the growth was 100%.
`N#Cc1ccc(CSc2ccc(S(=O)(=O)N3CCCC3)cn2)cc1` gave a growth of 85.1%.
For `CCn1nnnc1SCc1cn2cc(Cl)ccc2n1`, the growth was 91.4%.
Work on `CCOC(=O)c1c(C)[nH]c(C)c1C(=O)CSc1nnc2nc(C)cc(C)n12` yielded a growth of 86.7%.
`CC(=O)ON1C(C)(C)Cc2noc(N)c2C1(C)C` showed a growth of 97.6%.
Work on `Cn1cccc1C(=O)NC(=O)CSc1nc2cc(Cl)c[nH]c-2n1` yielded a growth of 104%.
In the case of `NC(=O)c1cc(Cl)ccc1OCC(=O)Nc1ccc(N2CCCCC2)cc1`, the growth is reported as 91.7%.
For `COc1cccc(CNCc2cccn2-c2sc(C)c(C)c2C(=O)O)c1`, the growth was 99%.
In the case of `CN1C(=O)\C=C(CSC2=NN=C(NC3CC3)S2)/N(C)C1=O`, the growth is reported as 94.9%.
`COc1ccc(S(=O)(=O)Nc2ccccc2Cl)cc1NS(=O)(=O)N1CCCCCC1` was tested, and the growth was 102%.
In the case of `Cc1ccc(C(=O)c2sc(Nc3ccccc3)nc2N)c(C)c1`, the growth is reported as 108%.
`Cc1ccc2oc(SCC(=O)NC(C)(C)C)nc2n1` showed a growth of 107%.
`COc1ccccc1CNc1sc(S(C)(=O)=O)nc1S(=O)(=O)c1ccc(C)cc1` gave a growth of 89%.
`CCN(CC)\C1=C(/C(=O)N2CCOCC2)[S](=O)(=O)C3=CC=CC=C13` gave a growth of 91.4%.
For `CCOC(=O)c1c(S(=O)(=O)NCC(=O)Nc2nc3ccc(Cl)cc3s2)c(C)n(C)c1C`, the growth was 95.1%.
`CCCc1cc(O)nc(SCC(=O)Nc2c(C)nn(-c3ccccc3)c2C)n1` gave a growth of 102%.
Work on `COc1cc(Br)c(CC(=O)OCC(=O)N2CCNC2=O)cc1OC` yielded a growth of 103%.
In the case of `COc1ccc(-c2nnc(SCC(=O)OC(C)C)n2-c2ccccc2)cc1`, the growth is reported as 99%.
`CCCCN(C(=O)c1noc2c1CC(C)CC2)C1CCN(C(C)=O)CC1` (stereo not given) showed a growth of 106%.
For `CCOc1ccc(NC(=O)c2cc(CC)c(C)s2)cc1OC`, the growth was 105%.
For `CCOC(=O)C1CCN(CC1)C(=O)N\C2=C\N(C)C(=O)C3=CC=CC=C23`, the growth was 103%.
For `O=C(Nc1cc(Cl)ccc1-n1cncn1)c1cncc(Br)c1`, the growth was 65.3%.
For `CCCCn1c(COC(=O)c2ccc(Cl)s2)nc2cc(S(N)(=O)=O)ccc21`, the growth was 96.5%.
For `Cc1cccc(NS(=O)(=O)c2cc(-c3onc(C)c3C)ccc2C)n1`, the growth was 99.2%.
`Cn1c(CN2CCOCC2)c(C#N)c2ccccc21` was tested, and the growth was 103%.
In the case of `COc1ccc(-c2onc(C)c2C)cc1S(=O)(=O)N(C)C(C)CCc1ccco1` (stereo not given), the growth is reported as 70.7%.
With `COc1cc(OC)c(C(=O)Nc2ccc3c(c2)NC(=O)C(C)O3)cc1OC` (stereo not given) the growth was 105%.
Work on `Cc1c(C(=O)Nc2ccc(C(=O)O)cc2)oc2c1C(=O)CC(C)(C)C2` yielded a growth of 85.7%.
Work on `CCOC(=O)c1cc(C(=O)N2CCOCC2)nn1C` yielded a growth of 96.2%.
With `CC(C)CCNC(=O)c1cnn2c3c(cnc12)CCCC3` the growth was 113%.
`COC(=O)c1cc2oc(C)cc2n1CC(=O)N1CC(C)CC(C)C1` (stereo not given) was tested, and the growth was 104%.
